Laboratory results from the supplement of paper PMC10849652.
The list shows a part of the results. Residues, ends and D or L forms follow the SMILES beside them. *: point of attachment. Cbz = O=C(OCc1ccccc1)*

Amino acid sequences for entries named in this document (tags omitted). A change or cut given only in a name is not applied to a line headed by its entry.
UniProt P08590, whole entry, looked up: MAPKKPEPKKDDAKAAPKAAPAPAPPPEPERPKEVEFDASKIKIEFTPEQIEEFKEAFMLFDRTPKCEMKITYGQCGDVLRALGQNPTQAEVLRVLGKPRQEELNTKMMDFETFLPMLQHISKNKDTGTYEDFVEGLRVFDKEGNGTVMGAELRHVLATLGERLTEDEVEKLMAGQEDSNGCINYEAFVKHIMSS
UniProt P84157: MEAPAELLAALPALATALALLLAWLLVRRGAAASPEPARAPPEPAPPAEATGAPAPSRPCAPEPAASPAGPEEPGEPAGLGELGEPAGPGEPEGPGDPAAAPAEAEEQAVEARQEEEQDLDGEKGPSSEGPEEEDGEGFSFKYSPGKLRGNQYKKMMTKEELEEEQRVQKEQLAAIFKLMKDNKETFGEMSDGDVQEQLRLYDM
UniProt Q9BTC8: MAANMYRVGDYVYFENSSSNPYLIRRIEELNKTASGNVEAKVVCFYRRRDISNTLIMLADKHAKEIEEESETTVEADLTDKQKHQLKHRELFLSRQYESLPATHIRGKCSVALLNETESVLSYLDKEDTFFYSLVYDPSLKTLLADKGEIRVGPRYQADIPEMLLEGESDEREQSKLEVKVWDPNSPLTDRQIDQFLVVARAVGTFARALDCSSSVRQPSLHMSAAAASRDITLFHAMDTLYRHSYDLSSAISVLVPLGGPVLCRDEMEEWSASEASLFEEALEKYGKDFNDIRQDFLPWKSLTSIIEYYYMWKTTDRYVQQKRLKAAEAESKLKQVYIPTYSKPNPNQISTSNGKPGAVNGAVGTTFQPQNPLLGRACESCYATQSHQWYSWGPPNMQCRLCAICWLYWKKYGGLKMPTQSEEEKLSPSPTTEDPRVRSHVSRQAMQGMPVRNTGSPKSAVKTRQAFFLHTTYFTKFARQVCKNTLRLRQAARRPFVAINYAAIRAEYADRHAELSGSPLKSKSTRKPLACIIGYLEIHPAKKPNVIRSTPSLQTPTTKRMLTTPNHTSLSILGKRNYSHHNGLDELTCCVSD
UniProt Q9NPC7: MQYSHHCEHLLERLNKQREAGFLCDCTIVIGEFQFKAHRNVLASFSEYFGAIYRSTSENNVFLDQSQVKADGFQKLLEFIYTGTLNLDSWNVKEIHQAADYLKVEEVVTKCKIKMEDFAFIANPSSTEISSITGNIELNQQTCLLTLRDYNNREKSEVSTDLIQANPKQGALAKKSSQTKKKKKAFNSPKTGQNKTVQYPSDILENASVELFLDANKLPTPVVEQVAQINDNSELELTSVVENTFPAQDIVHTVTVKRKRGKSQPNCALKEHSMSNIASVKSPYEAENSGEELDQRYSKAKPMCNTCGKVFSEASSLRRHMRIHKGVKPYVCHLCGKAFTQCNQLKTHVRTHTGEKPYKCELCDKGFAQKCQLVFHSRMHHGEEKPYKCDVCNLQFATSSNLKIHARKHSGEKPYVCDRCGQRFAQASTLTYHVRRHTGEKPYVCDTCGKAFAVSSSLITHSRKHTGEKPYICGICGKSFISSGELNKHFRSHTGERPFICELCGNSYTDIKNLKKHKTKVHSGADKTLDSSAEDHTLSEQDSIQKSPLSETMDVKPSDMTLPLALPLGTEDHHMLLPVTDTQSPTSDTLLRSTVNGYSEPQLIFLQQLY
UniProt Q9P0P8: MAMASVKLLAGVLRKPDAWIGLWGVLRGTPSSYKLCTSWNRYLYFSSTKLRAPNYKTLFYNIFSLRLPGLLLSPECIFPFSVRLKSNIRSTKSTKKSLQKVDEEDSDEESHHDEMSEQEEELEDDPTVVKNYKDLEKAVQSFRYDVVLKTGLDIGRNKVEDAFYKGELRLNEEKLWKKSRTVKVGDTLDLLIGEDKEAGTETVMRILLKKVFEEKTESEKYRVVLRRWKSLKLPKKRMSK
UniProt Q2M296: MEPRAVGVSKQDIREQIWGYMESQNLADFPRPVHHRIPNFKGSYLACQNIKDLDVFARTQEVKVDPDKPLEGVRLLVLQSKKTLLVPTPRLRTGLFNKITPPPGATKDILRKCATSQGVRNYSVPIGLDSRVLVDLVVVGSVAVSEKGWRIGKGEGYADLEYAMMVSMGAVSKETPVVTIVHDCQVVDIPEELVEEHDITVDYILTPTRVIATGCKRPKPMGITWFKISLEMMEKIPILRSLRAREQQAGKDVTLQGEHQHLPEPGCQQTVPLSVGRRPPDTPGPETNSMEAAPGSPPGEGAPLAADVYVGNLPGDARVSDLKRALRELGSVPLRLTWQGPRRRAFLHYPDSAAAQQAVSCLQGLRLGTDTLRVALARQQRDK
UniProt Q96E29: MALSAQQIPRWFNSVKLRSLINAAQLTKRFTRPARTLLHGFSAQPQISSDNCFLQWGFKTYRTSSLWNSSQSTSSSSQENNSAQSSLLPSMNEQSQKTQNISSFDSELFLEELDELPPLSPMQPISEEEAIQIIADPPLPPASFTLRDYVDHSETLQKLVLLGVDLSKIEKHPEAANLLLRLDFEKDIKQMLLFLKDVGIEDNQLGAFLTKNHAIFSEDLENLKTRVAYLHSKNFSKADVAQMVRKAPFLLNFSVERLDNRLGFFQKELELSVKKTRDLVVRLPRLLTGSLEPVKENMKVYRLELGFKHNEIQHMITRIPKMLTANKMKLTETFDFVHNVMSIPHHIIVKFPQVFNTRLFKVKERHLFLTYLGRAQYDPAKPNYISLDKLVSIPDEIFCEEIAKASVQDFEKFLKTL
UniProt Q6P1R3: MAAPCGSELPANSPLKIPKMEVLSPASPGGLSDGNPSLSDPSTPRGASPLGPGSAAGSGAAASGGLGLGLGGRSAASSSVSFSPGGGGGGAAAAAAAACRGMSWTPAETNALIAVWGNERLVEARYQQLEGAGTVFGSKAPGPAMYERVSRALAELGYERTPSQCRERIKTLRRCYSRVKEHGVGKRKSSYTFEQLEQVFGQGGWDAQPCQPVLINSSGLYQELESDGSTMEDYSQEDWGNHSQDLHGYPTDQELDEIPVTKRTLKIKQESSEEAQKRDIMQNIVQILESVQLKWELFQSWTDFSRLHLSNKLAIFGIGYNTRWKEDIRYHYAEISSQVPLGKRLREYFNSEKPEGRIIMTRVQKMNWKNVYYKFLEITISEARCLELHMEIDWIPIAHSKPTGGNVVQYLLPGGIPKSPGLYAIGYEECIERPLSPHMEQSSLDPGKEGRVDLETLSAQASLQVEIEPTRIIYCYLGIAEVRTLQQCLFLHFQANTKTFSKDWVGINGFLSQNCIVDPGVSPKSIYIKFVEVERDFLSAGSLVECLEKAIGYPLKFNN
UniProt Q9UKX2, whole entry, looked up: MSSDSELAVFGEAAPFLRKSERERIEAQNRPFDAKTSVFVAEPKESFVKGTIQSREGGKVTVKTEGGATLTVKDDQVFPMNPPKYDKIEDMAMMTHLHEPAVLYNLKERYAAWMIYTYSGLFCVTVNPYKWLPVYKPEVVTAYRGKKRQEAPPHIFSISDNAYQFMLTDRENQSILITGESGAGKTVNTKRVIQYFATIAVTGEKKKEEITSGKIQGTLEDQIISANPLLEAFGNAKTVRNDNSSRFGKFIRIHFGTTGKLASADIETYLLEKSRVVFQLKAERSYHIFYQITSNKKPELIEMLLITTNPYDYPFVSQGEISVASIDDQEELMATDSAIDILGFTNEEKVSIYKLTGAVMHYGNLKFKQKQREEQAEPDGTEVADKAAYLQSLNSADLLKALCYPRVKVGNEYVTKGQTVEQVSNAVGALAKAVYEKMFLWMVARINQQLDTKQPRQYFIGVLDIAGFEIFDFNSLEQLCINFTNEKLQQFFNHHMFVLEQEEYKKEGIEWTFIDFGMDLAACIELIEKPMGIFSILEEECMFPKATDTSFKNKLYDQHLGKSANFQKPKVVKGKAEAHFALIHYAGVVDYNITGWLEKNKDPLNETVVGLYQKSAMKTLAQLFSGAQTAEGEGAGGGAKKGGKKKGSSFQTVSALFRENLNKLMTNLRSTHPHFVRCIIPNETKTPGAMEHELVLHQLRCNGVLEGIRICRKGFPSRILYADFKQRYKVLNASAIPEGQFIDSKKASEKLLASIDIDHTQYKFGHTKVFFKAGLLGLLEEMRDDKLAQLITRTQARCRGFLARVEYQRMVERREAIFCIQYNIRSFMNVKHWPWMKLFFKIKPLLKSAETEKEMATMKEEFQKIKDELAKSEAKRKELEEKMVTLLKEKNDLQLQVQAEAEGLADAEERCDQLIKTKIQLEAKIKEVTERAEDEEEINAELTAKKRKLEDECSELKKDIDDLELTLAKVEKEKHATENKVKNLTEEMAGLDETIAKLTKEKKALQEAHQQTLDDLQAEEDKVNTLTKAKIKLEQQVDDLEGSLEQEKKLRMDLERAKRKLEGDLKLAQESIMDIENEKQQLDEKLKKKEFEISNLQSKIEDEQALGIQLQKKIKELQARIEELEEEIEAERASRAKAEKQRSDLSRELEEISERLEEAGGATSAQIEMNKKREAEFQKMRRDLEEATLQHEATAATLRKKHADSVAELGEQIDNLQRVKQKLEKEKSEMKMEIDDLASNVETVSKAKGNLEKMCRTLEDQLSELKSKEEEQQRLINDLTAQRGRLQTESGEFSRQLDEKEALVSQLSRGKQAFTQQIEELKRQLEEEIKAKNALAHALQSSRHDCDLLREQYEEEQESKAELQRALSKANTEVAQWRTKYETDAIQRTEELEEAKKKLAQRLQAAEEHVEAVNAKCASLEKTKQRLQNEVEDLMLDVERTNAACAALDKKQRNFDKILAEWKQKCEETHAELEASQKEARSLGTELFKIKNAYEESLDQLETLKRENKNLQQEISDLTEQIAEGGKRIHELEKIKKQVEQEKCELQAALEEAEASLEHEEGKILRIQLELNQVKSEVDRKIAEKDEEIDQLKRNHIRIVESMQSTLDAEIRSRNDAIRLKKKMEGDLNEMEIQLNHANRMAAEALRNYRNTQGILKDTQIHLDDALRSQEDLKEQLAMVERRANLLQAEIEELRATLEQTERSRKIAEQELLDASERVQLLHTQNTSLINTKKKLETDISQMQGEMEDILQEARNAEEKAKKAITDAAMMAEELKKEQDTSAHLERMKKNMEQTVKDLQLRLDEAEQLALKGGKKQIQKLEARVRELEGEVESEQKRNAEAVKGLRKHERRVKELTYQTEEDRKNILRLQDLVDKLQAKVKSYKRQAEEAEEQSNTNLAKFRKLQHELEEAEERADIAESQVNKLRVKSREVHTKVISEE
UniProt P03897, whole entry, looked up: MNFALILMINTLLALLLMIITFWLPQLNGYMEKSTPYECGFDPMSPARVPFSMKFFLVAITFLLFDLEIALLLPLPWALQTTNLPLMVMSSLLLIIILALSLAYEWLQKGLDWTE
MTHFD1, A0A384N5Y3, UniProt A0A384N5Y3, whole entry, looked up: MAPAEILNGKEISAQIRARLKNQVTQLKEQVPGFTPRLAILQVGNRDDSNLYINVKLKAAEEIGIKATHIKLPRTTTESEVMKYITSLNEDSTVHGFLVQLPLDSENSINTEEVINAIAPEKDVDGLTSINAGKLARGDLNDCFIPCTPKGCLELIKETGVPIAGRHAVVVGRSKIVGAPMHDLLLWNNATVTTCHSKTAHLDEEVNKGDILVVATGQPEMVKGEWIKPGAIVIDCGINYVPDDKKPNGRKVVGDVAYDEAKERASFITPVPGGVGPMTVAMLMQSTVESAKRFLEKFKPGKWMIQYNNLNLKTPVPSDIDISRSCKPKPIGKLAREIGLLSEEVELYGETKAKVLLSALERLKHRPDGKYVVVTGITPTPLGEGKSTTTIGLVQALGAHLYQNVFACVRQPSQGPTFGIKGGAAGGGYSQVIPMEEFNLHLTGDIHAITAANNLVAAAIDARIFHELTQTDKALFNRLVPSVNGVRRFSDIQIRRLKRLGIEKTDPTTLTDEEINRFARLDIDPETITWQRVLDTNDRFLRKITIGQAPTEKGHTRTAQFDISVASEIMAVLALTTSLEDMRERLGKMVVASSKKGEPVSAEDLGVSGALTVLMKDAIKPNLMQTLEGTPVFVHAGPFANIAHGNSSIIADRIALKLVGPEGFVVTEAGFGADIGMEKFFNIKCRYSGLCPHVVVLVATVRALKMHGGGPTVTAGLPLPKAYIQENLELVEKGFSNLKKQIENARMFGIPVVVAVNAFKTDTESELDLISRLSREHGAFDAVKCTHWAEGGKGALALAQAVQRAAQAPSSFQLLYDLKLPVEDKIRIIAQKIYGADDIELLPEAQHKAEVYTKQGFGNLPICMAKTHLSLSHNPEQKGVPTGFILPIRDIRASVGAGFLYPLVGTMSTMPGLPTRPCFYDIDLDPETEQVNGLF
UniProt Q13126: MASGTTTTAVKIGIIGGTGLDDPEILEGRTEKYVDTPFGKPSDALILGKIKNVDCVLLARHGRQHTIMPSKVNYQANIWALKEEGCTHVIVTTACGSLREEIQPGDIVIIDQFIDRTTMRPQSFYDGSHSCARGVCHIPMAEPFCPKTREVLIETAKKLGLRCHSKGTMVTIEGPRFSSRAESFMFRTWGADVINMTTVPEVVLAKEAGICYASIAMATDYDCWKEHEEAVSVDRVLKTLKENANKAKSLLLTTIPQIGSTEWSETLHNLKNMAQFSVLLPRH

Experiments:
Experiment in all cases: log2 fold change, soluble protein after heating vs DMSO (PISA); higher = thermal stabilisation; K562 cells, 10 uM, 30 min; active = over 0.2 and 3.5 SD of the protein, either way, in both replicates (recomputed)
[1] = compound: CC1=CC=C(C=C1)SC2=C3C=C(SC3=CN=C2)C(=O)N
Method in brief: (§1)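 K562 cells (2×10^6 cells/mL) were treated with 10 μM compound for 30 min, and aliquots were heated for 3 min over 48°C-58°C. Pooled aliquots were extracted in PBS with 0.5% NP-40 at 4°C, and the supernatant after 21,000xg for 90 min was measured by TMTpro 16plex LC-MS/MS with channel sums equalised. Reported thermal stability, relative to control samples and from duplicates, is a log2 fold change.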

[2] = compound: CCCS(=O)(=O)Nc1ccc(F)c(C(=O)c2c[nH]c3ncc(Cl)cc23)c1F
Method in brief: as §1

[3] = compound: C1COCCN1CCN2C3=CC=CC=C3N=C2NC(=O)C4=CC(=CC=C4)[N+](=O)[O-] [IRAK-1-4 Inhibitor I]
Method in brief: as §1

[4] = compound: C=CC(=O)N1CCC[C@@H](n2nc(-c3ccc(Oc4ccccc4)cc3)c3c(N)ncnc32)C1 [ibrutinib]
Method in brief: as §1

[5] = compound: CC(C)N(C[C@H]1O[C@@H](n2cnc3c(N)ncnc32)[C@H](O)[C@@H]1O)[C@H]1C[C@@H](CCc2nc3cc(C(C)(C)C)ccc3[nH]2)C1 [pinometostat]
Method in brief: as §1

[6] = compound: CC1=C(C2=C(C=C1)C(=O)C3=CC=CC=C3N2CCCN)C
Method in brief: as §1

[7] = compound: CC1=NC(=CC=C1)C2=C(N=C(N2)C(C)(C)C)C3=CC4=NC=CN=C4C=C3
Method in brief: as §1

[8] = compound: CCCS(=O)(=O)Nc1ccc(F)c(C(=O)c2c[nH]c3ncc(-c4ccc(Cl)cc4)cc23)c1F [vemurafenib]
Method in brief: as §1

[9] = compound: CCCc1cc(C)[nH]c(=O)c1CNC(=O)c1cc(-c2ccnc(N3CCN(C)CC3)c2)cc2c1cnn2C(C)C
Method in brief: as §1

[10] = compound: CCN(CCCOc1ccc2c(Nc3cc(CC(=O)Nc4cccc(F)c4)[nH]n3)ncnc2c1)CCOP(=O)(O)O [barasertib]
Method in brief: as §1

[11] = compound: CC(C)(O)CC(=O)NCCn1ccc2ncnc(Nc3ccc(Oc4cccc(C(F)(F)F)c4)c(Cl)c3)c21
Method in brief: as §1

[12] = compound: CC1=C(C=C(C=C1)NC(=O)C2=CC(=CC=C2)C(C)(C)C#N)NC3=CC4=C(C=C3)N=CN(C4=O)C
Method in brief: as §1

[13] = compound: CCCCN(Cc1ccc(C(=O)NO)cc1)C(=O)Nc1ccccc1 [Nexturastat A]
Method in brief: as §1

[14] = compound: CC(C)(C)Cn1c(N)nc2ccc(-c3[nH]c(C(C)(C)C)nc3-c3ccc(F)cc3)nc21 [ralimetinib]
Method in brief: as §1

[15] = compound: CC(C)C1=C2N=C(C=C(N2N=C1)NCC3=CC=CC=C3)NCCCCCCN
Method in brief: as §1

[16] = compound: CC(C)C[C@@H](C=O)NC(=O)[C@H](CC(C)C)NC(=O)[C@H](CC(C)C)NC(=O)OCc1ccccc1
Method in brief: as §1

[17] = compound: CC1=C(C=C(C=C1)NC(=O)C2=CC(=CC=C2)N(C)C)NC(=O)C3=CC=C(C=C3)O
Method in brief: as §1

[18] = compound: CCN(CC)Cc1ccc2cc(COC(=O)Nc3ccc(C(=O)NO)cc3)ccc2c1 [givinostat]
Method in brief: as §1

[19] = compound: CC1=C(C(CC(=O)N1)C2=CC=C(C=C2)C(F)(F)F)C(=O)NC3=C(C=C4C(=C3)C=NN4)F
Method in brief: as §1

[20] = compound: CC(=O)c1cnc2ccc(-c3cc(Cl)c(O)c(Cl)c3)nc2c1N[C@H]1CC[C@H](CN(C)C)CC1
Method in brief: as §1

Measured: log2 fold change

MSRA (UniProt Q9UJ68)
inactive: [1] -0.168 | [2] 0.024

MTURN (UniProt Q8N3F0)
inactive: [3] -0.012 | [4] 0.126 | [5] -0.123 | [6] -0.012 | [1] 0.106 | [7] -0.037 | [8] 0.258 | [2] 0.025 | [9] 0.006 | [10] 0.16

MTHFD2L (UniProt Q9H903)
inactive: [11] 0.115 | [12] 0.041 | [13] 0.285 | [8] 0.004 | [9] 0.171

MTMR4 (UniProt Q9NYA4)
inactive: [3] 0.136 | [14] -0.195 | [15] 0.052 | [16] 0.028 | [5] 0.206 | [12] -0.089 | [17] 0.061 | [7] 0.076 | [18] 0.206

MYL3 (UniProt P08590)
inactive: [3] 0.082 | [4] 0.076 | [14] -0.067 | [15] -0.049 | [16] 0.013 | [5] 0.018 | [19] 0.049 | [17] -0.247 | [1] 0.049 | [7] -0.113 | [2] -0.005 | [9] 0.011 | [18] 0.008 | [10] 0.045

MTHFD1L (UniProt B7ZM99)
inactive: [4] 0.024 | [20] -0.08 | [14] -0.034 | [15] 0.081 | [16] -0.024 | [19] -0.098 | [17] 0.015 | [1] -0.012 | [8] 0.018 | [2] 0.056 | [9] -0.096 | [18] -0.005 | [10] -0.03

MXRA7 isoform 3 (UniProt P84157)
inactive: [14] -0.031 | [16] 0.151 | [17] 0.178 | [1] -0.174 | [2] 0.193

MTA3 (UniProt Q9BTC8)
inactive: [11] -0.335 | [15] 0.124 | [6] -0.109 | [12] -0.034 | [1] 0.005 | [13] 0.311 | [2] 0.047 | [18] 0

MYNN (UniProt Q9NPC7)
inactive: [14] 0.167 | [16] 0.117 | [12] 0.098 | [17] -0.009

MTRES1 (UniProt Q9P0P8)
inactive: [20] -0.192 | [11] 0.036 | [15] 0.101 | [6] 0.091 | [1] 0.059 | [13] 0.06 | [2] -0.058 | [9] -0.063 | [18] 0.067

MTERF4 (UniProt Q7Z6M4)
inactive: [3] -0.062 | [20] -0.012 | [14] -0.268 | [11] -0.104 | [15] 0.234 | [16] 0.239 | [5] -0.022 | [19] 0.012 | [6] 0.114 | [12] 0.112 | [17] -0.251 | [1] -0.047 | [7] -0.004 | [13] -0.197 | [2] 0.037 | [9] -0.282 | [18] -0.044

MTHFSD (UniProt Q2M296)
inactive: [20] 0.02 | [6] 0.081 | [9] -0.137

MTERF3 (UniProt Q96E29)
inactive: [4] 0.049 | [14] 0.088 | [15] 0.014 | [16] -0.069 | [6] -0.262 | [12] 0.036 | [17] 0.068 | [9] -0.113 | [18] 0.016 | [10] -0.132

MTRF1L (UniProt Q9UGC7)
inactive: [4] -0.008 | [20] -0.014 | [14] 0.061 | [11] 0.125 | [15] -0.028 | [16] -0.018 | [19] -0.037 | [6] -0.014 | [17] -0.074 | [1] -0.005 | [13] 0.062 | [8] 0.034 | [2] 0.067 | [9] -0.004 | [18] 0.012 | [10] 0.07

MSANTD2 (UniProt Q6P1R3)
inactive: [11] 0.047 | [6] 0.012 | [12] -0.024 | [13] 0.239 | [8] -0.062

MYH2 (UniProt Q9UKX2)
inactive: [4] -0.066 | [9] -0.059 | [10] 0.266

MT-ND3 (UniProt P03897)
inactive: [3] 0.045 | [4] -0.302 | [14] 0.097 | [15] 0.101 | [16] -0.039 | [5] -0.006 | [19] 0.025 | [17] 0.173 | [7] -0.042 | [18] 0.107 | [10] -0.166

Reprinted at random: two entries already listed.
MTMR4 (UniProt Q9NYA4)
inactive: [3] 0.136 | [14] -0.195 | [15] 0.052 | [16] 0.028 | [5] 0.206 | [12] -0.089 | [17] 0.061 | [7] 0.076 | [18] 0.206

MYNN (UniProt Q9NPC7)
inactive: [14] 0.167 | [16] 0.117 | [12] 0.098 | [17] -0.009

Next part

MTHFD1, A0A384N5Y3
inactive: [4] 0.002 | [20] -0.085 | [14] 0 | [11] -0.034 | [16] -0.008 | [6] 0.049 | [12] 0.036 | [17] -0.107 | [1] -0.055 | [13] 0.013 | [8] 0.088 | [2] 0.058 | [9] -0.035 | [10] 0.044

MTAP isoform 2 (UniProt Q13126)
inactive: [3] -0.337 | [4] 0.048 | [5] 0.042 | [12] -0.067 | [7] -0.06 | [10] 0.134
